# Source: publication doi:10.1101/2020.01.12.903369
# By UniProt entry, the sequences of proteins in these tests, tags left out.
# UniProt Q07820: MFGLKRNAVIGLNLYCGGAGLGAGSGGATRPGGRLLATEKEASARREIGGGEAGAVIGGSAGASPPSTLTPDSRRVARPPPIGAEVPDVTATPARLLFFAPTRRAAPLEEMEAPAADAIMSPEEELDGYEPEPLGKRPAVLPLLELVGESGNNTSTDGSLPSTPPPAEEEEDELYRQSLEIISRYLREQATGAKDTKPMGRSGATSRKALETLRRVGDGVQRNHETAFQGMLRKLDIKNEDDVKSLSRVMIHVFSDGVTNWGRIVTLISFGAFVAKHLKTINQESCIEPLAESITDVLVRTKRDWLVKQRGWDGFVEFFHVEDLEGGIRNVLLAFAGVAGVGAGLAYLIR
# These are yes or no findings as the source states them, for the method shown. In cells and extracts the contact can be indirect. Some binding calls cover weakened binding; strength is not graded here.
# Target: T1, MARCH5 (human (endogenous in LNCaP)) (UniProt Q9NX47)
# T1 sequence: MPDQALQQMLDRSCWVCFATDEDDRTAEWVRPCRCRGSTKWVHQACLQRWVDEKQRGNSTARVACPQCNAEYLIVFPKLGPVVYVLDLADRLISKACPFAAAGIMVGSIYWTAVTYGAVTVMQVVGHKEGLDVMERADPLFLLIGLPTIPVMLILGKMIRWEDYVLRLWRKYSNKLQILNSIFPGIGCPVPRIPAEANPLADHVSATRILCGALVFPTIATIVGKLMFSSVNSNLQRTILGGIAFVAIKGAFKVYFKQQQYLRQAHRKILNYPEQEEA
# Assay: co-IP
substance,measurement,value
MCL1 (from UniProt Q07820 1-350),binding,binds
